In patent publication US20080306124A1, “Polycyclic Oxadiazoles or I Soxazoles and Their Use as Sip Receptor Ligands” (priority 2005, published 2008):
Some entries share one result that the patent states for a list of compounds.

The chains behind the UniProt entries cited, without tags or fusion partners. Where a name states a change or a piece, a line headed by the entry shows the natural chain unless it says otherwise.
UniProt Q9H228: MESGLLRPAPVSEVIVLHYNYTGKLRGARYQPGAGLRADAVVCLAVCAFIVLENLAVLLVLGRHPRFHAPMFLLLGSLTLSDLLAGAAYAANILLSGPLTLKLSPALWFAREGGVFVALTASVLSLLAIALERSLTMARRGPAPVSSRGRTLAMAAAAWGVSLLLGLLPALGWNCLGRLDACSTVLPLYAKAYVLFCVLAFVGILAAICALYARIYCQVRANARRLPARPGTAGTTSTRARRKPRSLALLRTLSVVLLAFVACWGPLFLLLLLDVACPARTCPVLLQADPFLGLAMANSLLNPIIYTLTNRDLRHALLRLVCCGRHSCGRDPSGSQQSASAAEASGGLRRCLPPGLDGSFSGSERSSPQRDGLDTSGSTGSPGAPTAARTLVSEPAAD
UniProt Q99500: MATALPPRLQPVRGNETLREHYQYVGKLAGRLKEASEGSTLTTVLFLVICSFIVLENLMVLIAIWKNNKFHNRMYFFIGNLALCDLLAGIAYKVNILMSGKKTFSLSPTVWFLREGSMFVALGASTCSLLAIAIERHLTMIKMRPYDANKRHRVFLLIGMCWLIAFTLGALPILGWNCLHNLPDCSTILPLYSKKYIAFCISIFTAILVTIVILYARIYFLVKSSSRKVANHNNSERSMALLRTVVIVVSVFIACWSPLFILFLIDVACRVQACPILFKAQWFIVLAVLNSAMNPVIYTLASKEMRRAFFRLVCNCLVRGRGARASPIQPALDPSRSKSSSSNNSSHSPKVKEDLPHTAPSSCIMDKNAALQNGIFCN

Experiments:
S1P8 receptor = target: T1, S1P8 receptor (Homo sapiens, UniProt Q9H228); assay: S1P8 GTP [γ-35S] binding assay, membranes from CHO cells; format: biochemical; settings: GTP[γ-35S] binding assays
T1 construct: c-myc (or untagged); expressed in transfected cells

S1P3 receptor = target: T2, S1P3 receptor (Homo sapiens, UniProt Q99500); assay: S1P3 GTP [γ-35S] binding assay, membranes from CHO cells; format: biochemical; settings: GTP[γ-35S] binding assays
T2 construct: c-myc (or untagged); expressed in transfected cells

Compound | selectivity for S1P1 receptor compared to S1P8 receptor (S1P8 receptor) | selectivity for S1P1 receptor compared to S1P3 receptor (S1P3 receptor)
CCc1cc(-c2noc(-c3ccc(-c4ccccc4F)c(C(F)(F)F)c3)n2)ccc1S(N)(=O)=O [Example 194, 2-Ethyl-4-[5-(2′-fluoro-2-trifluoromethyl-biphenyl-4-yl)-[1,2,4]oxadiazol-3-yl]-benzenesulfonamide] | at least 20 fold | at least 20 fold
O=C(O)CCNS(=O)(=O)c1ccc(-c2noc(-c3ccc(Oc4cccc(F)c4)c(C(F)(F)F)c3)n2)cc1 [Example 54] | at least 20 fold | at least 20 fold
CCc1cc(-c2noc(-c3ccc(C4CCCCC4)c(C(F)(F)F)c3)n2)ccc1S(N)(=O)=O [Example 196, 4-[5-(4-Cyclohexyl-3-trifluoromethyl-phenyl)-[1,2,4]oxadiazol-3-yl]-2-ethyl-benzenesulfonamide] | at least 20 fold | at least 20 fold
NS(=O)(=O)c1ccc(-c2noc(-c3ccc(OC4CCCC4)c(C(F)(F)F)c3)n2)cc1 [Example 145] | at least 20 fold | at least 20 fold
CCc1ccccc1-c1ccc(-c2nc(-c3ccc(S(=O)(=O)NCC(=O)O)cc3)no2)cc1C(F)(F)F [Example 45] | at least 20 fold | at least 20 fold
